The list shows a part of the results.
Legend:
Experiment in all cases: log2 fold change, soluble protein after heating vs DMSO (PISA); higher = thermal stabilisation; K562 cells, 10 uM, 30 min; active = over 0.2 and 3.5 SD of the protein, either way, in both replicates (recomputed)
[1] = compound: CC1=C(SC2=C1C(=N[C@H](C3=NN=C(N32)C)CC(=O)N)C4=CC=C(C=C4)Cl)C
Procedure, shortened: (§1)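 K562 cells (2×10^6 cells/mL) were treated with 10 μM compound for 30 min, and aliquots were heated for 3 min over 48°C-58°C. Pooled aliquots were extracted in PBS with 0.5% NP-40 at 4°C, and the supernatant after 21,000xg for 90 min was measured by TMTpro 16plex LC-MS/MS with channel sums equalised. Reported thermal stability, relative to control samples and from duplicates, is a log2 fold change.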

Sequences of proteins named here, by UniProt entry; tags and fusion partners are left off. A change or cut given only in a name is not applied to a line headed by its entry.
UniProt Q92783: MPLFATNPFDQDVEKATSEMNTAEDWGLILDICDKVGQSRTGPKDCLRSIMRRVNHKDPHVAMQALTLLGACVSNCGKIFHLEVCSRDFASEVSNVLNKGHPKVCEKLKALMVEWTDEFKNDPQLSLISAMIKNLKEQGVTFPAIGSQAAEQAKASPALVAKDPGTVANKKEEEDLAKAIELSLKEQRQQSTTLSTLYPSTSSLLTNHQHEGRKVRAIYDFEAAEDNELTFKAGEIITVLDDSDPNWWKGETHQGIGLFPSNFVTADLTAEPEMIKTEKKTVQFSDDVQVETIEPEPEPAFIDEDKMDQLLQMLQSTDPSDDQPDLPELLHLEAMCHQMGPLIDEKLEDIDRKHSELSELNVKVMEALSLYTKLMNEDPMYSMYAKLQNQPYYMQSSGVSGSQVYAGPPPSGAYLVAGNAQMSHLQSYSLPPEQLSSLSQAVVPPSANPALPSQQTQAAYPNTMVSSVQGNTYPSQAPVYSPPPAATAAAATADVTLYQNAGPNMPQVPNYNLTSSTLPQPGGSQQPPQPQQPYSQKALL
UniProt Q7Z6B7: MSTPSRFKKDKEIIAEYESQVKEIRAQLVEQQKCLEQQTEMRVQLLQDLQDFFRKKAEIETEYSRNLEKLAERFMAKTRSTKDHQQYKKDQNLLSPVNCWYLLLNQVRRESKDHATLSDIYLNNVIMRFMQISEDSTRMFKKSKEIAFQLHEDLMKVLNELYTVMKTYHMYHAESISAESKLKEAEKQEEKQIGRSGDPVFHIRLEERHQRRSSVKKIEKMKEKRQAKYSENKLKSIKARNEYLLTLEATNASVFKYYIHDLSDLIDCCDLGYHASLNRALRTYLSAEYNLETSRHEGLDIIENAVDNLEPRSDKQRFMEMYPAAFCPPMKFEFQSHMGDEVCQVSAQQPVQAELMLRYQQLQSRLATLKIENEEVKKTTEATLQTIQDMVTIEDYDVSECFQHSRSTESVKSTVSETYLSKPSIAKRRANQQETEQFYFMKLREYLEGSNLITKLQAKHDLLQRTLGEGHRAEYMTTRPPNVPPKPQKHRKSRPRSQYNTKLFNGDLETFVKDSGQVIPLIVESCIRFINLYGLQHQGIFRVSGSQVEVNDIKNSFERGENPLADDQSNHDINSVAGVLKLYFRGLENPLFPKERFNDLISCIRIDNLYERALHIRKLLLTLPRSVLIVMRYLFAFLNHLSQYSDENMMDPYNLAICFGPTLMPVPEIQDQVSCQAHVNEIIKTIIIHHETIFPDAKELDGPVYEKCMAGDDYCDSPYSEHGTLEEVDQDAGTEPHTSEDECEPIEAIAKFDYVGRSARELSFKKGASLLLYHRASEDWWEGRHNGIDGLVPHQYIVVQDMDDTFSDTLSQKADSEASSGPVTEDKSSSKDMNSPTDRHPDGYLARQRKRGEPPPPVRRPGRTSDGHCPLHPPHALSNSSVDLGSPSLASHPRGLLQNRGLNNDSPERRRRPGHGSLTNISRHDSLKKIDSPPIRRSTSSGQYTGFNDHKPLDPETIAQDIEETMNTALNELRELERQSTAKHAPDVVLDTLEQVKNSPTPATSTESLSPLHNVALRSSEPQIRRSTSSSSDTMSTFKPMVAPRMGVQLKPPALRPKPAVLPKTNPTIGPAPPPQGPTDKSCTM
UniProt Q13242, whole entry, looked up: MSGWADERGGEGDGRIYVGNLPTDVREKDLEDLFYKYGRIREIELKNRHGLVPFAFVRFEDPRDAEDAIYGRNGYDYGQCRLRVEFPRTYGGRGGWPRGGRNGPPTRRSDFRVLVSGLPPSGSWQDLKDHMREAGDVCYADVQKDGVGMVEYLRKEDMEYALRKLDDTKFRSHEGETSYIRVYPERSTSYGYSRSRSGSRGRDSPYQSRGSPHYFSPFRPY
UniProt Q9P2P6: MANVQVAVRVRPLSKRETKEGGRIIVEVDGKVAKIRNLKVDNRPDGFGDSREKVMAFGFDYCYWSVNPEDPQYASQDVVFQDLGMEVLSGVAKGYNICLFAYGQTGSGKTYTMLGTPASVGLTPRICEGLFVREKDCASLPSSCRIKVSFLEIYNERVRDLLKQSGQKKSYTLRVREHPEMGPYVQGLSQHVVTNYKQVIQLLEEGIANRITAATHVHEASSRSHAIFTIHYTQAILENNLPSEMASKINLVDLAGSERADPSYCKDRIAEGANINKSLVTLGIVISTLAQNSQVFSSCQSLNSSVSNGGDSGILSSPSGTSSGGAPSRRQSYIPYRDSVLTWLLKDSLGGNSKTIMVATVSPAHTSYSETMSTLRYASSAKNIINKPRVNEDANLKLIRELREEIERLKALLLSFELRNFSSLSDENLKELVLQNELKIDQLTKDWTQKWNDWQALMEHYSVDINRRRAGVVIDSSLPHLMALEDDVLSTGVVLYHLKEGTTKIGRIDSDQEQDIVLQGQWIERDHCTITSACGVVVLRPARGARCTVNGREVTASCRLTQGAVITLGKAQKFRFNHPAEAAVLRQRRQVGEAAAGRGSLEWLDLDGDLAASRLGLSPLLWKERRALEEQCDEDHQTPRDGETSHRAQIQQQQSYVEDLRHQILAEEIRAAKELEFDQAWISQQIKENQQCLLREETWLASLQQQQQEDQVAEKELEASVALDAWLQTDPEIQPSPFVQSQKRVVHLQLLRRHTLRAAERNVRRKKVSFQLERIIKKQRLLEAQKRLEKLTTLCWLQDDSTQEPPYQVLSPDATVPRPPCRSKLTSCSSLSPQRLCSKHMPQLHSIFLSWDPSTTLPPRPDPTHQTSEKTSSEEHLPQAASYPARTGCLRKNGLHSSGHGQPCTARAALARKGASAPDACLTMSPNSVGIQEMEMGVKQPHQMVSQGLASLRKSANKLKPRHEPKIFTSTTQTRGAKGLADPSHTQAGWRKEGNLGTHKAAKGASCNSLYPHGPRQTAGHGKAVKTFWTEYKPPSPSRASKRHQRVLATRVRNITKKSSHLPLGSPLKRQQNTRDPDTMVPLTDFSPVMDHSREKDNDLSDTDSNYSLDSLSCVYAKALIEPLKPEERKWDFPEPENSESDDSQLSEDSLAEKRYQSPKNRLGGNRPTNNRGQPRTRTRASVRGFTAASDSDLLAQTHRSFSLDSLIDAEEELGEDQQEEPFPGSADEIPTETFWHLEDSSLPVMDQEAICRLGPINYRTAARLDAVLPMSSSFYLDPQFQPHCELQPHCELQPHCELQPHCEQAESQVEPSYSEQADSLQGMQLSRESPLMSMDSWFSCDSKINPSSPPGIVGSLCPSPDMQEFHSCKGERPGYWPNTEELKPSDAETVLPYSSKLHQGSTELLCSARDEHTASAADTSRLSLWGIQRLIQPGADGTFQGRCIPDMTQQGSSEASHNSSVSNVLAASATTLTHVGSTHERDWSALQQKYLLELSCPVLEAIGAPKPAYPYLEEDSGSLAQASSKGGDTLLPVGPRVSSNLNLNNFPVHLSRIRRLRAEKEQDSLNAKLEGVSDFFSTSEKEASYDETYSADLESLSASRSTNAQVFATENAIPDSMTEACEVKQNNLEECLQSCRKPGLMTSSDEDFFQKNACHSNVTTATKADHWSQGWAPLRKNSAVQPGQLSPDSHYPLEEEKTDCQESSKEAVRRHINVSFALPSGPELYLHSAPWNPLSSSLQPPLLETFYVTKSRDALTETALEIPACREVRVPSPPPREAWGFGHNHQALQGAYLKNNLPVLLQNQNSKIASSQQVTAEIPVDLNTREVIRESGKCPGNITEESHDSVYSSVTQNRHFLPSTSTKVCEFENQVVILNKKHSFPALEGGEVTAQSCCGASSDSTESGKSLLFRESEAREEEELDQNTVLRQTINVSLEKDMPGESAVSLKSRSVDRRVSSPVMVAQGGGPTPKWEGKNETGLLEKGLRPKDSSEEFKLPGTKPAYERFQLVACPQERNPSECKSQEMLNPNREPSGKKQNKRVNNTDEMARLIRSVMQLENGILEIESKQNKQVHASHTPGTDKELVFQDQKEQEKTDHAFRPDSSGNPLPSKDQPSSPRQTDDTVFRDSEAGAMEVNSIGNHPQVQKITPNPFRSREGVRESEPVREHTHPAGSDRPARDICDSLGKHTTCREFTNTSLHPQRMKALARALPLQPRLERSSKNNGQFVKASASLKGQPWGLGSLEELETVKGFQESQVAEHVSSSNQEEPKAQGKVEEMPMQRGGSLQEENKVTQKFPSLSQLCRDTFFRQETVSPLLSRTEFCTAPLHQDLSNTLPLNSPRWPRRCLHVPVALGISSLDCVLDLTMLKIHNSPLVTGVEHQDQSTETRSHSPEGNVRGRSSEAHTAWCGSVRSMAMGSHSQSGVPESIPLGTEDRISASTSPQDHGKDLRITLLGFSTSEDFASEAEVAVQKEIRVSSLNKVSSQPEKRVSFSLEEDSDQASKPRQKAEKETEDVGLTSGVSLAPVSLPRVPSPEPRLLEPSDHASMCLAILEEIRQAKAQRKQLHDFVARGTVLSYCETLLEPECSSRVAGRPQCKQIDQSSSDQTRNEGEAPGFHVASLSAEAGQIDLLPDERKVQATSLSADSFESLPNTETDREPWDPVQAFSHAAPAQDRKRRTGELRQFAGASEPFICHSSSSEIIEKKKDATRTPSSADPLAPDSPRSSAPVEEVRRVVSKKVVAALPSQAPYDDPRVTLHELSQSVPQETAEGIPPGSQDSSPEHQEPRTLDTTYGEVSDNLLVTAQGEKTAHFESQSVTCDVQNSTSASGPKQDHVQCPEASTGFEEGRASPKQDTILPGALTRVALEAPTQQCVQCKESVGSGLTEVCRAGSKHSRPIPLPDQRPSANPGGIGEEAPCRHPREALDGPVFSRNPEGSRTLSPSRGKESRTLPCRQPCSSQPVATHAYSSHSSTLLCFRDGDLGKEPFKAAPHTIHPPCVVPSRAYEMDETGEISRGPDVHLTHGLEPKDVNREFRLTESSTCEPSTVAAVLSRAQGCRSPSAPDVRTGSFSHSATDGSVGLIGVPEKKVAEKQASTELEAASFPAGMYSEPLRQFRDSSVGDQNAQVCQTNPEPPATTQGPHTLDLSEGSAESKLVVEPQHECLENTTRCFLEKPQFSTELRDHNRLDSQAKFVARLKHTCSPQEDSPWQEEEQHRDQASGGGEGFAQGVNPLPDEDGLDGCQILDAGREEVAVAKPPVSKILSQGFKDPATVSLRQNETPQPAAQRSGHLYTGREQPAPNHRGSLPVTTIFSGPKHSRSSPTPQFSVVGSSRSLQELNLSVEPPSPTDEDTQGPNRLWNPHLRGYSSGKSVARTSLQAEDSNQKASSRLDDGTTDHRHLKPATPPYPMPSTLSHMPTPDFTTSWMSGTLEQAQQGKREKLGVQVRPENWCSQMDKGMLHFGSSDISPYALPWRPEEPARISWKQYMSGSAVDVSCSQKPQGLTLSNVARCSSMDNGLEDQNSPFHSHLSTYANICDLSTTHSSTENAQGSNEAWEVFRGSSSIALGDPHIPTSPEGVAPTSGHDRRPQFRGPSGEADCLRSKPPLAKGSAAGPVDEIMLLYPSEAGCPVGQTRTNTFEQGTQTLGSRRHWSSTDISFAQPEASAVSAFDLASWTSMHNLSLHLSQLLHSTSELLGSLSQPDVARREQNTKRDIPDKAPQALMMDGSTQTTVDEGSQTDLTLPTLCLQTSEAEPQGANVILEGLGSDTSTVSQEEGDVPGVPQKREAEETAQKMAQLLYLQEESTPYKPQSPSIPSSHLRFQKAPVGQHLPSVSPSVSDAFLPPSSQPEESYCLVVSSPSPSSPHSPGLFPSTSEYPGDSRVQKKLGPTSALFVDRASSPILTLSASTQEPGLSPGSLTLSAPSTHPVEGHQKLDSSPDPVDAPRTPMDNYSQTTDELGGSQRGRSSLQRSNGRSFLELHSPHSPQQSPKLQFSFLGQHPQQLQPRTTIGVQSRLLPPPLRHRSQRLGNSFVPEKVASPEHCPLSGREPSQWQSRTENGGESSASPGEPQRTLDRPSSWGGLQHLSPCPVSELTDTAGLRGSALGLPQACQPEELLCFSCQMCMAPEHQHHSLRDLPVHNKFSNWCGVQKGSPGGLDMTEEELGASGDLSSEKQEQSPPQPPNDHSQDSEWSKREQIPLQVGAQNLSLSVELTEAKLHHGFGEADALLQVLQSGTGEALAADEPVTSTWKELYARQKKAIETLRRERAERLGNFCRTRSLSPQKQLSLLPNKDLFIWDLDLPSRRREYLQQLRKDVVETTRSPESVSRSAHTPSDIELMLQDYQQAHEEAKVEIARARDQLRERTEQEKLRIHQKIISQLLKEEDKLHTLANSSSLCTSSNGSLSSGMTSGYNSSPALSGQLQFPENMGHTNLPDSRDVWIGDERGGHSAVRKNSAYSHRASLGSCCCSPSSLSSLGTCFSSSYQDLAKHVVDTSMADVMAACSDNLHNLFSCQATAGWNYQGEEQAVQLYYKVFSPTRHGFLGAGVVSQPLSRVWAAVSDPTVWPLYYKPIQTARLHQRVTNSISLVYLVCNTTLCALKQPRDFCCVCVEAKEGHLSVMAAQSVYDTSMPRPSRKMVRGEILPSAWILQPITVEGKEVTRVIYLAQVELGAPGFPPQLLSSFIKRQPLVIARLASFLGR

[2] = compound: CC1=C2C(=CC=C1)N=C(N(C2=O)C3=CC=CC=C3C)CN4C=NC5=C(N=CN=C54)N
Procedure, shortened: as §1

[3] = compound: c1ccc([C@@H]2C[C@H]2NC2CCNCC2)cc1
Procedure, shortened: as §1

[4] = compound: C1=CC=C(C=C1)[C@H](COC2=CC3=C(C=C2)NC(=O)N3)NC(=O)C4=CC=CN(C4=O)CC5=CC(=C(C=C5)F)F
Procedure, shortened: as §1

[5] = compound: Cc1sc2c(c1C)C(c1ccc(Cl)cc1)=N[C@@H](CC(=O)OC(C)(C)C)c1nnc(C)n1-2
Procedure, shortened: as §1

Target	log2 fold change [1]	log2 fold change [2]	log2 fold change [3]	log2 fold change [4]	log2 fold change [5]
SPATS2 (UniProt Q86XZ4)	inactive: -0.055	inactive: -0.154	inactive: 0.112	–	–
STARD10 (UniProt Q9Y365)	–	inactive: -0.004	–	–	–
SPINT1 (UniProt O43278)	–	inactive: -0.077	–	–	–
STAM (UniProt Q92783)	inactive: 0.017	inactive: 0.041	inactive: 0.009	inactive: -0.049	inactive: -0.029
SPCS1, A0A5F9YFS9	inactive: 0.277	inactive: 0.106	inactive: -0.329	inactive: 0.014	inactive: -0.176
SPC24 (UniProt Q8NBT2)	inactive: 0.048	inactive: 0.047	inactive: -0.026	inactive: -0.011	inactive: -0.017
SSRP1 (UniProt Q08945)	inactive: 0.023	inactive: 0.087	inactive: -0.016	inactive: -0.027	inactive: -0.051
SRGAP1 (UniProt Q7Z6B7)	–	inactive: 0.072	–	inactive: 0.065	inactive: 0.126
SPATA31E1 (UniProt Q6ZUB1)	inactive: 0.175	inactive: 0.497	inactive: 0.061	inactive: -0.008	–
SPATA33 isoform 2 (UniProt Q96N06)	inactive: 0.013	inactive: 0.009	inactive: 0.046	inactive: 0.134	inactive: 0.042
SRSF9 (UniProt Q13242)	inactive: -0.452	inactive: -0.38	inactive: 0.041	inactive: 0.045	–
SSB (UniProt E7ERC4)	–	inactive: 0.188	–	–	–
SRR (UniProt Q9GZT4)	–	inactive: 0.109	–	inactive: 0.03	inactive: -0.055
STARD9 (UniProt Q9P2P6)	inactive: 0.147	inactive: -0.072	inactive: -0.087	inactive: -0.073	inactive: 0.042
SRRD (UniProt Q9UH36)	–	–	–	inactive: -0.33	inactive: 0.045
SRCIN1 (UniProt Q9C0H9)	–	inactive: 0.076	–	inactive: 0.005	–
STAR (UniProt P49675)	–	inactive: 0.223	–	–	–
STIM2 isoform 2 (UniProt Q9P246)	–	inactive: -0.04	–	–	inactive: 0.018
SREBF2 (UniProt Q12772)	–	inactive: 0.133	–	inactive: -0.032	–
SQOR (UniProt Q9Y6N5)	–	inactive: -0.076	–	–	–
SPATS2L isoform 3 (UniProt Q9NUQ6)	inactive: -0.199	–	inactive: 0.144	–	–
ST3GAL4 isoform 4 (UniProt Q11206)	inactive: 0.008	–	inactive: -0.256	inactive: -0.035	inactive: -0.002
SPTAN1 isoform 3 (UniProt Q13813)	–	inactive: -0.128	–	–	–
SPRED2 (UniProt Q7Z698)	inactive: 0.017	–	inactive: -0.042	–	–
ST8SIA6 (UniProt P61647)	–	inactive: 0.35	–	inactive: 0.053	–
SSBP2 (UniProt P81877)	inactive: 0.117	–	inactive: 0.207	inactive: 0.077	–
SRFBP1 (UniProt Q8NEF9)	inactive: -0.14	–	inactive: -0.013	inactive: 0.011	inactive: 0.048

Retrieved one by one from above (two):
Target	log2 fold change [1]	log2 fold change [2]	log2 fold change [3]	log2 fold change [4]	log2 fold change [5]
SQOR (UniProt Q9Y6N5)	–	inactive: -0.076	–	–	–
SPATA31E1 (UniProt Q6ZUB1)	inactive: 0.175	inactive: 0.497	inactive: 0.061	inactive: -0.008	–
